This note sets out measurements from article PMC7550656.

By UniProt entry, the sequences of proteins in these tests, tags left out.
UniProt Q04637: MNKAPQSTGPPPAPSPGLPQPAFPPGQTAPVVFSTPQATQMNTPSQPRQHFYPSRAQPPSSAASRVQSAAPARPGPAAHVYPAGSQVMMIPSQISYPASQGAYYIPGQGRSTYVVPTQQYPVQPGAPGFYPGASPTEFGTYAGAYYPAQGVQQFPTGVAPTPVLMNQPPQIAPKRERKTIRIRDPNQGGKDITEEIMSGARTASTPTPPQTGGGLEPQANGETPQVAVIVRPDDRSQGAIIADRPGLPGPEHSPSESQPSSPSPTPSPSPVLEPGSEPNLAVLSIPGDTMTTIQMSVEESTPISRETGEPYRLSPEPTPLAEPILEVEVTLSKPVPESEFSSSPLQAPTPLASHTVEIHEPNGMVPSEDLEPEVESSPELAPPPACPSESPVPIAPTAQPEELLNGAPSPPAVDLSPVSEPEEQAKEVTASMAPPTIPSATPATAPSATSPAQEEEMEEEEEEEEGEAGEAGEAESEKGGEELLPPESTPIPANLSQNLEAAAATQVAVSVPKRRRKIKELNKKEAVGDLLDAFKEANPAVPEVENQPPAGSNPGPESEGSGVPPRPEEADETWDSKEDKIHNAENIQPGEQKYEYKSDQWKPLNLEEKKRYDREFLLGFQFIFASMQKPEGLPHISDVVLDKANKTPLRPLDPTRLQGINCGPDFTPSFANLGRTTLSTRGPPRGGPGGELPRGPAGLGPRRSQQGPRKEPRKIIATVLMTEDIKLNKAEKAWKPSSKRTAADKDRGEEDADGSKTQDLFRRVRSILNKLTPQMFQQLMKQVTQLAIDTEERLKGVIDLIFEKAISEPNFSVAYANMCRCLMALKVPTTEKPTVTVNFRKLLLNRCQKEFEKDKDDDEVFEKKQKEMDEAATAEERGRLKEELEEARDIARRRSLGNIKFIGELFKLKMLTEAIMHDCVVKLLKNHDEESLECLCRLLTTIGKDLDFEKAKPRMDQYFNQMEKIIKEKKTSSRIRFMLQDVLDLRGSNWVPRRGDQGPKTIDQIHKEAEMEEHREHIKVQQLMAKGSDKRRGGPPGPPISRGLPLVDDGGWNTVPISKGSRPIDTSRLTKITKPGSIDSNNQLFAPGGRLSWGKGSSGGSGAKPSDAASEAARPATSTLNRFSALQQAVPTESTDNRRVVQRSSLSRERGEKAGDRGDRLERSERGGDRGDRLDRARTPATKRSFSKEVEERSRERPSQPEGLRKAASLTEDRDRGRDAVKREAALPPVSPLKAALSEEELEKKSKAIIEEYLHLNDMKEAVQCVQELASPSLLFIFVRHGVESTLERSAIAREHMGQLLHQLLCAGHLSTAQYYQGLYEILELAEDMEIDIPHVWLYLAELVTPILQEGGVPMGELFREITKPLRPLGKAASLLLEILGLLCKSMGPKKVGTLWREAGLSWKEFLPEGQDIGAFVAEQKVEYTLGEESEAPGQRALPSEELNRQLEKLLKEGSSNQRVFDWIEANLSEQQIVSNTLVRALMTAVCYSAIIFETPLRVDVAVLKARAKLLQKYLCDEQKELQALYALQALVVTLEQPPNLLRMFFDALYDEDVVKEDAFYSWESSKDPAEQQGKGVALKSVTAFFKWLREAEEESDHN
UniProt Q13283: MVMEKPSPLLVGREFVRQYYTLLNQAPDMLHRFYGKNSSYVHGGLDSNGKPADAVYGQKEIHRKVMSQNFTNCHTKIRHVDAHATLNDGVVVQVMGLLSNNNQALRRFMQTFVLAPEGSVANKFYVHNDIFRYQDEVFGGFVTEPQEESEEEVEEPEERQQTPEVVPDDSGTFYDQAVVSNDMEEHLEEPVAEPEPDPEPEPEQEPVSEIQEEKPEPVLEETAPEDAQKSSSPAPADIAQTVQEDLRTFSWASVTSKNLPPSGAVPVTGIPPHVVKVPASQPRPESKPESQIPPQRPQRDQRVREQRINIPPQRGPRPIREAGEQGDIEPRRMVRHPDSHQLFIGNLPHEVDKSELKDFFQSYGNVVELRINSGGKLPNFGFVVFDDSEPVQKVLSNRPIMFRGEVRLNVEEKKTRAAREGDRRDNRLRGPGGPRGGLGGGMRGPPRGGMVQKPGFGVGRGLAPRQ

These are yes or no findings as the source states them, for the method shown. In cells and extracts the contact can be indirect. Some binding calls cover weakened binding; strength is not graded here.

Assay [1] concerns the target eIF4GI, endogenous (human (endogenous in 293T)) (UniProt Q04637). In words: co-IP; mock-infected 293T cells; lysate immunoprecipitated with anti-eIF4GI antibodies, immunoblot. On the technique in general: In western blotting, separated proteins are transferred to a membrane and probed.
The target of assay [2] is eIF4GI, transfected (Figure 7E) (UniProt Q04637). In words: co-IP; 293T cells transfected with SVV 3C (and eIF4GI, by the legend) for 24 h; lysate immunoprecipitated with anti-eIF4GI antibodies, immunoblot.

On to “Ras-GTPase-activating protein SH3-domain-binding protein 1, endogenous (from UniProt Q13283 1-466)”, for which the binding entry in assay [1] was “binds”; in assay [2] it was “binds weakly”.
